{
  "source": "PubChem BioAssay AID540256",
  "about": "(National Center for Advancing Translational Sciences (NCATS), 2011)",
  "note": "Out of some 300,000 compounds screened, about 3,700 (1.2%) were called active. The shares of active, inactive and inconclusive entries below differ from those in the screen. Calls follow the shape of the full dose curve; tested in HEK293 cells. Potencies of inconclusive entries are doubtful fits and often do not repeat. % is scaled to controls: 0 for no effect and ±100 for the full control effect; potency is read from the fitted curve at half-maximal effect.",
  "data": [
    {"test": "qHTS for Inhibitors of binding or entry into cells for Lassa Virus; also: nearly all actives have a fitted effect of over 50% in size", "conditions": "Lassa virus pseudotype entry inhibition, cell reporter; activity change, negative = inhibition: at 37.9 µM (top of the series) unless noted", "values": [
      {"smiles": "CCOc1ccc(-c2cc(C(=O)NCc3ccccc3Cl)c3ccccc3n2)cc1", "activity change, negative = inhibition": "inactive: -4.61% [at 46.1 µM]"},
      {"smiles": "O=C1CCCCc2sc(Br)c([N+](=O)[O-])c2N1", "activity change, negative = inhibition": "inactive: -24.2%"},
      {"smiles": "CCCCOc1ccc(CNC(=S)N/N=C/c2ccc(OC)c(OC)c2)cc1", "Potency": "inconclusive: 1.58 µM [inhibitor, full curve]"},
      {"smiles": "O=C(O)c1ccc([N+](=O)[O-])c([N+](=O)[O-])c1", "Potency": "inconclusive: 11.2 µM [inhibitor, partial curve, poor fit]"},
      {"smiles": "C/C(=N/NS(=O)(=O)c1ccccc1)c1ccc(NC(=O)C2CC2)cc1", "Potency": "inconclusive: 35.5 µM [inhibitor, single point]"},
      {"smiles": "C/C(=N\\NC(=O)c1c(C)nc2ccccn12)c1ccco1", "activity change, negative = inhibition": "inactive: 0.242%"},
      {"smiles": "CCc1ccc(O)c(C(=O)c2cnc3cc(-c4ccc(C)cc4)nn3c2)c1", "Potency": "inconclusive: 0.316 µM [inhibitor, full curve, poor fit]"},
      {"smiles": "CCOC(=O)c1c(C)[nH]c(C(=O)COC(=O)c2ccc(O)cc2)c1C", "Potency": "inconclusive: 11.2 µM [inhibitor, partial curve]"},
      {"smiles": "CCNC(=S)Nc1ccc(-c2nc3ccccc3[nH]2)cc1", "Potency": "inconclusive: 35.5 µM [inhibitor, single point]"},
      {"smiles": "N#Cc1c(C(F)(F)F)cc(-c2cccs2)nc1SCC(=O)Nc1ccccc1F", "activity change, negative = inhibition": "inactive: 0.884% [at 46.1 µM]"},
      {"smiles": "Cc1ccc(OCC(=O)Nc2cccc(OCc3cc(=O)n4cccc(C)c4n3)c2)cc1C", "activity change, negative = inhibition": "inactive: 6.42% [at 46.1 µM]"},
      {"smiles": "CC(=O)Nc1ccc(S(=O)(=O)Nc2nc3ccccc3nc2-n2ccc(=NC(=O)c3ccc(F)cc3)cc2)cc1", "Potency": "inconclusive: 1.26 µM [inhibitor, single point]"},
      {"smiles": "CCOc1ccc(NC(=O)CSc2nnc(Cn3cnc([N+](=O)[O-])n3)n2C)cc1", "Potency": "inconclusive: 3.55 µM [inhibitor, partial curve]"},
      {"smiles": "O=C1OCCC1Sc1nnc(-c2ccc(Br)cc2)o1", "note": "(stereo not given)", "Potency": "inconclusive: 12.6 µM [inhibitor, single point]"},
      {"smiles": "COc1ccccc1N1CCN(C(c2cccs2)c2nnnn2C2CCCC2)CC1", "note": "(stereo not given)", "activity change, negative = inhibition": "inactive: 0.942%"},
      {"smiles": "CCCN(CC(=O)Nc1ccccc1C)C(=O)c1ccc(N2CCCC2)c([N+](=O)[O-])c1", "Potency": "inconclusive: 35.5 µM [inhibitor, single point]"},
      {"smiles": "Cc1nccn1CC(=O)O", "Potency": "inconclusive: 0.184 µM [activator, full curve]"},
      {"smiles": "O=C(c1ccc2c(c1)N(Cc1ccccc1F)C(=O)c1ccccc1S2(=O)=O)N1CCN(c2ccccc2F)CC1", "activity change, negative = inhibition": "inactive: -27% [at 46.1 µM]"},
      {"smiles": "Cc1nn(C)cc1CNC(=O)c1ccc(Br)o1", "activity change, negative = inhibition": "inactive: 4.28%"},
      {"smiles": "Cn1c(C(=O)N2CCCC(C(=O)NCCc3ccccc3)C2)cc2sccc21", "note": "(stereo not given)", "Potency": "inconclusive: 8.2 µM [inhibitor, partial curve, poor fit]"}
    ]}
  ]
}
